This note sets out measurements from PubChem BioAssay AID2685 (National Center for Advancing Translational Sciences (NCATS), 2010).

This assay is described as follows: qHTS Assay for Lipid Storage Modulators in Drosophila S3 Cells.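 For cell number change: cells counted by Cell Tracker Red CMTPX staining in the red channel.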 The note with it: BODIPY lipid droplet fluorescence, 18-24 h; for cell number change: measured here: cell count max response, cells fed with added oleic acid. The method, boiled down:
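Drosophila S3 cells got compounds at several concentrations plus oleic acid (400 uM solution). Laser-scanning cytometry with 488 nm excitation read lipid droplets at 500-530 nm and cells at 575-640 nm. Percent activity was relative to 20 uM Triacsin C.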
(In general: Quantitative high-throughput screening tests each substance at several concentrations.)

The mark [1] stands for this setting: measured here: cell number channel AC50, cells fed with added oleic acid.
[2] abbreviates: measured here: lipid fluorescence (Fed channel) AC50, cells fed with added oleic acid.

This is one part of the list. The main result of the screen is listed elsewhere. These columns were measured beside it and carry no call. The list favours compounds with an active or inconclusive main result. The note in brackets gives the kind of curve behind each potency; many fits are weak.

With `CCOc1ccc(NS(=O)(=O)c2cc(NC(=O)CCC(=O)c3cccs3)ccc2Cl)cc1`, the cell number change is -18.8%. Moreover, the AC50 (as a rule, the concentration giving half of the maximal activity seen) under setting [1] is 6.51 µM [falling, single point].

With `O=C(NCC(c1ccco1)N1CCN(c2ccccc2)CC1)c1ccc2c(c1)OCO2` (stereo unspecified), the cell number change is -41.2%. Further, the AC50 under setting [1] was 4.61 µM [falling, full curve]. For the same compound, the AC50 under setting [2] is 29.1 µM [falling, single point].

For the compound `COC(=O)C1C(=O)c2c([nH]c(C(=O)OC3CCCCC3)c2C)CC1C` (stereo unspecified), the cell number change is -24.5%. For the same compound, under setting [2], the AC50 was 10.3 µM [falling, partial curve].

For `COc1cc(NC(=O)Cc2ccc(Cl)cc2)ccc1NC(=O)c1ccco1`, the cell number change was -15.8%. In addition, the AC50 under setting [2] is 5.8 µM [falling, partial curve].

As for `CCCN(CCC)C(=O)CSc1ncccc1C(=O)O`, the cell number change was -9.18%. The AC50 under setting [2] was 0.58 µM [falling, single point].

Consider `Cc1cc(C(F)(F)F)n2nc(C)c(-c3ccc(Cl)cc3)c2n1`, for which the cell number change came out at 20.7%. The AC50 under setting [2] is 1.64 µM [rising, full curve].

Take `CCCNC(=O)OCC12CC3CC(CC(C3)C1)C2`: the cell number change is -33%. The AC50 under setting [1] was 20.6 µM [falling, single point].

As for `CC(C)CC(=O)Nc1ccc2oc(-c3ccncc3)nc2c1`, the cell number change came to 5.52%. Moreover, the AC50 under setting [2] was 0.58 µM [rising, full curve, poor fit].

Regarding `NS(=O)(=O)c1ccc(CNS(=O)(=O)c2ccc(Cl)nc2)cc1`, the cell number change is -19.5%. Under setting [1], the AC50 is 0.731 µM [rising, full curve, poor fit]. In addition, under setting [2], the AC50 was 0.58 µM [rising, single point].

In the case of `O=C(NCCOc1ccc(F)cc1)C1CCC(=O)N(CC2CCCCC2)C1` (stereo unspecified), the cell number change stood at 24%. Under setting [2], the AC50 was 0.13 µM [falling, full curve, poor fit].

Regarding `COc1cc(/C=C/C(=O)c2ccc(O)cc2)ccc1OCC#N`, the cell number change was -8.16%. For the same compound, under setting [2], the AC50 is 0.00517 µM [falling, full curve, poor fit].

For the compound `CC(Oc1ccccc1)C(=O)OCC(=O)NC(=O)NCc1ccco1` (stereo unspecified), the cell number change is -59.3%. Moreover, the AC50 under setting [1] is 29.1 µM [falling, single point].

As for `O=C(N/N=C/c1cccnc1)c1ccc(NC(=O)c2ccccc2Cl)cc1`, the cell number change worked out at 2.99%. Moreover, the concentration at half-maximal activity (AC50) under setting [2] is 25.9 µM [falling, single point].

Regarding `COc1ccc(/C=C2\SC(=O)N(CCNC(=O)CN3C(=O)NC4(CCCC4)C3=O)C2=O)cc1`, the cell number change is -25%.

As to `c1cncc(CNc2nc(-c3cccnc3)nc3ccccc23)c1`, the cell number change is -19.4%.

Turning to `N#Cc1c(NC(=O)c2ccc(Br)o2)n(-c2ccccc2)c2nc3ccccc3nc12`, the cell number change is 23%. The AC50 under setting [1] is 0.146 µM [rising, full curve, poor fit]. Besides, under setting [2], the AC50 was 0.116 µM [rising, partial curve, poor fit].

For `Cn1c(=O)c2c(nc(SCC(=O)O)n2Cc2cc3c(cc2Cl)OCO3)n(C)c1=O`, the cell number change came out at 39.4%. The AC50 under setting [1] is 10.3 µM [rising, partial curve]. Under setting [2], the AC50 was 18.4 µM [rising, partial curve, poor fit].

Consider `CCOC(=O)N1CCN(S(=O)(=O)N(C)C)CC1`, for which the cell number change was found to be 30.7%. Moreover, the AC50 under setting [1] was 13 µM [rising, partial curve, poor fit]. Further, the concentration at half-maximal activity (AC50) under setting [2] is 6.51 µM [rising, single point].

As to `O=C1C2C3C=CC(CNS(=O)(=O)c4ccccc4)(O3)C2C(=O)N1c1ccc(Cl)cc1` (stereo unspecified), the cell number change was -24.7%. Further, the AC50 under setting [2] is 6.51 µM [rising, single point].

Consider `COc1cc(NC(=O)CSc2ncnc3c2cnn3Cc2ccccc2)cc(OC)c1`, for which the AC50 by setting is: under setting [1], 1.46 µM [rising, partial curve]; under setting [2], 0.58 µM [rising, partial curve, poor fit].

As for `CC1=C(C(=O)OCC2CCCCC2)C(c2ccc(F)cc2)NC(=O)N1` (stereo unspecified), the half-maximal activity concentration (AC50) under setting [2] is 1.3 µM [falling, partial curve].

For `CC(C)/C=C/CN1CCCC(N2CCN(c3cccc(Cl)c3)CC2)C1` (stereo unspecified), the cell number change is -20.1%. The AC50 under setting [2] is 16.4 µM [falling, single point].

Take `Cc1ccc(NNC(=O)c2ccno2)cc1Cl`: the cell number change was found to be 22.6%. For the same compound, under setting [2], the AC50 is 16.4 µM [rising, single point].

Turning to `CC1=C(C(=O)OCC(C)C)C(c2ccsc2)C2=C(CCCC2=O)N1` (stereo unspecified), the cell number change is 7.46%. In addition, under setting [2], the AC50 is 20.6 µM [rising, partial curve].

Take `Cc1ccc2[nH]c(O)c(N=NC(=O)C3CC3c3ccccc3)c2c1Br` (stereo unspecified): the cell number change was -56.5%. Besides, the AC50 under setting [1] was 23.1 µM [falling, single point]. The AC50 under setting [2] was 20.6 µM [falling, single point].

Turning to `CC1CCN(S(=O)(=O)c2ccc(NC(=O)N3c4ccccc4Sc4ccccc43)cc2)CC1`, the cell number change was determined as 33.6%. Moreover, the AC50 under setting [2] is 3.26 µM [rising, single point].

Take `COC(=O)CC1NCCc2cc(OC)c(OC)cc21` (stereo unspecified): the cell number change was -8.91%.

Consider `O=S(=O)(Nc1ccc2c(c1)OCCO2)c1cccc2cccnc12`, for which the cell number change is 70.4%. In addition, the AC50 under setting [1] is 23.1 µM [rising, partial curve].

For the compound `O=C(C[n+]1ccccc1)c1ccc(Cl)cc1`, the cell number change is -7.91%. Further, the AC50 under setting [2] is 14.6 µM [rising, partial curve].

Take `COc1ccccc1-n1c(C)c(C(=O)O)c2cc(OC)c3ccccc3c21`: the cell number change is 9.01%. Under setting [2], the AC50 was 0.58 µM [rising, single point].

As to `COCCN(C(=O)COC(=O)C1CCC(C(C)(C)C)CC1)c1c(N)n(Cc2ccccc2)c(=O)[nH]c1=O` (stereo unspecified), the cell number change is -36%. Further, under setting [1], the AC50 is 5.8 µM [falling, full curve, poor fit].

Turning to `CCCNC(=O)CC(NS(=O)(=O)c1ccc(NC(C)=O)cc1)C(C)C` (stereo unspecified), the cell number change worked out at 3.62%. In addition, the AC50 under setting [1] is 6.51 µM [falling, single point]. Moreover, the AC50 under setting [2] is 6.51 µM [falling, single point].

Turning to `COC(OC)c1ccnc(-c2ccc(OC(=O)c3ccc(F)cc3)cc2)n1`, the cell number change was -17%. For the same compound, the AC50 under setting [2] was 29.1 µM [falling, single point].

Regarding `COc1ccccc1NS(=O)(=O)c1cc(NC(=O)Nc2cccc(C)c2)ccc1N1CCCCC1`, the cell number change was -12.5%. Besides, the AC50 under setting [2] was 29.1 µM [falling, single point].

On to `CCOC(=O)c1ccc(N2CSC3=C(C#N)C(c4ccc(OC)cc4OC)CC(=O)N3C2)cc1` (stereo unspecified), for which the cell number change is -28%. Moreover, the AC50 under setting [2] is 16.4 µM [falling, single point].

For `COc1ccc(/C=N\NC(=O)CNC(=O)C(c2ccccc2)c2ccccc2)cc1[N+](=O)[O-]`, the cell number change was -36.6%. The AC50 under setting [1] was 18.4 µM [falling, partial curve, poor fit]. Further, the half-maximal activity concentration (AC50) under setting [2] is 29.1 µM [rising, single point].
